Measured values published in paper PMC8382608.

Amino acid sequences for entries named in this document (tags omitted). A change or cut given only in a name is not applied to a line headed by its entry.
UniProt Q8TD17: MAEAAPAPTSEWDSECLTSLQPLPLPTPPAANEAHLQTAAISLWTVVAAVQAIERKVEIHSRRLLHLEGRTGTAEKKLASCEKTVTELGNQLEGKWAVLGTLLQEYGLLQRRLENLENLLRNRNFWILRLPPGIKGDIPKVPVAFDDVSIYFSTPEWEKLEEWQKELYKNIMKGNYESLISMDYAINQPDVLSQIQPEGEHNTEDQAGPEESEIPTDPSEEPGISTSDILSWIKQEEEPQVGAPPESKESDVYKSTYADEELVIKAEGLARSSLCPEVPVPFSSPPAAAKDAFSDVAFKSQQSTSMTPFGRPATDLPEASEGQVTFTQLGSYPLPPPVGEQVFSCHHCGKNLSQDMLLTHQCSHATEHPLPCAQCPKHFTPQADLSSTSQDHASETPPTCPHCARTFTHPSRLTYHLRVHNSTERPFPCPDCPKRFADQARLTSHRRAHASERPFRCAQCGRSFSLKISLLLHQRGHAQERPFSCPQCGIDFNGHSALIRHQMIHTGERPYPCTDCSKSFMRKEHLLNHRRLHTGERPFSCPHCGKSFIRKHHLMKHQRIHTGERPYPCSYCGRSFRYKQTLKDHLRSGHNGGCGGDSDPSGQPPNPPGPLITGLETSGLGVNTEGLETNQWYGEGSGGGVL
UniProt Q9ULD5: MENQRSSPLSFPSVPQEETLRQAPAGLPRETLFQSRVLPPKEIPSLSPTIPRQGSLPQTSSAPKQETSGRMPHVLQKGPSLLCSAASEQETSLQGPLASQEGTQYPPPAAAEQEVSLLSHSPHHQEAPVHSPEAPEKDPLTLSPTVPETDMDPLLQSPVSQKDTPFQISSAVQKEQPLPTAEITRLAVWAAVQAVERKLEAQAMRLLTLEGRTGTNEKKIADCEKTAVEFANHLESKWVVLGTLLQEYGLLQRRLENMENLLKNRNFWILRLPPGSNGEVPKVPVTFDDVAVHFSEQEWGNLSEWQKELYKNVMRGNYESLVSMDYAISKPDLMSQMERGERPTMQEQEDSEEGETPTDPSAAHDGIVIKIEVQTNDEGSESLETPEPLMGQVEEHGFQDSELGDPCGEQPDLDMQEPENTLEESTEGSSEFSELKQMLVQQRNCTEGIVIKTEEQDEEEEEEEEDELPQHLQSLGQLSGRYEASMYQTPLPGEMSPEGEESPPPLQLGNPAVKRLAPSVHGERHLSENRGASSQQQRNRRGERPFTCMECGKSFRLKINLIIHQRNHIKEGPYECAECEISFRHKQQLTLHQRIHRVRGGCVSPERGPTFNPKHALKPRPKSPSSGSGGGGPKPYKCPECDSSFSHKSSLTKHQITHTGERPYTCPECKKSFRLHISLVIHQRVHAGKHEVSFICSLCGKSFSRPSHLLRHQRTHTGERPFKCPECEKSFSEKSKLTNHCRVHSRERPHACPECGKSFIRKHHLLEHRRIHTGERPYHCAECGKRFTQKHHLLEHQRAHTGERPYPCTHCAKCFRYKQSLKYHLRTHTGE
UniProt Q9UDV7: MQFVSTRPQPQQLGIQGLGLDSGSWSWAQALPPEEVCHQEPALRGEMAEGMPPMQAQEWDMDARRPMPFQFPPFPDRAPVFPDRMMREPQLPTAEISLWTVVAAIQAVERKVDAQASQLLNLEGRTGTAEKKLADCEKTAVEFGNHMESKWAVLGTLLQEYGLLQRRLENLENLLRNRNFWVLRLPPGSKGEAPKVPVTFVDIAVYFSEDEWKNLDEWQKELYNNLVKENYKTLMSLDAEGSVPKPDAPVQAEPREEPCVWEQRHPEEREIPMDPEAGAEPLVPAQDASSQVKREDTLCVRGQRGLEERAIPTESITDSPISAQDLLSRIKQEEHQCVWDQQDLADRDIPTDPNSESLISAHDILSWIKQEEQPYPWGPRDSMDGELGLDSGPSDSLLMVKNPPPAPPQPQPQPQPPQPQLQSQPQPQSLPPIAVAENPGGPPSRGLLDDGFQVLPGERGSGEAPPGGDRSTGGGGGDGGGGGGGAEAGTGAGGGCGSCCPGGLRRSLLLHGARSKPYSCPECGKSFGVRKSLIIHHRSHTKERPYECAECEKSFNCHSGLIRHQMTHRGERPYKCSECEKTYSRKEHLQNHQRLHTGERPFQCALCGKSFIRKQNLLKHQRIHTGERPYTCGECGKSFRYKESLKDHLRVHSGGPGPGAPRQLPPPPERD

Columns and labels:
[1] = biological target: DUF3669 domain of human ZNF398 (human) (UniProt Q8TD17); experiment: two-hybrid; yeast co-expressing an N-terminal region linked to the GAL4 DNA-binding domain (BD) or the GAL4 activation domain (AD); growth on a selective medium
[2] = biological target: DUF3669 domain of human ZNF777 (human) (UniProt Q9ULD5); experiment: as above

Substance	binding [1]	binding [2]
DUF3669 domain of human ZNF282 (from UniProt Q9UDV7) (domain or fragment)	binds	binds
DUF3669 domain of human ZNF398 (from UniProt Q8TD17) (domain or fragment)	–	binds

Results are given in words; binding and its absence hold for the method and conditions named. Binding calls can cover weak binding; strength is not graded here.
